This is an account of results in paper PMC9534960, “De Novo Design of an Androgen Receptor DNA Binding Domain‐Targeted peptide PROTAC for Prostate Cancer Therapy” (Advanced Science, 2022).

Protein sequences, listed by entry. Tags and fused reporters are not part of them.
UniProt Q00987: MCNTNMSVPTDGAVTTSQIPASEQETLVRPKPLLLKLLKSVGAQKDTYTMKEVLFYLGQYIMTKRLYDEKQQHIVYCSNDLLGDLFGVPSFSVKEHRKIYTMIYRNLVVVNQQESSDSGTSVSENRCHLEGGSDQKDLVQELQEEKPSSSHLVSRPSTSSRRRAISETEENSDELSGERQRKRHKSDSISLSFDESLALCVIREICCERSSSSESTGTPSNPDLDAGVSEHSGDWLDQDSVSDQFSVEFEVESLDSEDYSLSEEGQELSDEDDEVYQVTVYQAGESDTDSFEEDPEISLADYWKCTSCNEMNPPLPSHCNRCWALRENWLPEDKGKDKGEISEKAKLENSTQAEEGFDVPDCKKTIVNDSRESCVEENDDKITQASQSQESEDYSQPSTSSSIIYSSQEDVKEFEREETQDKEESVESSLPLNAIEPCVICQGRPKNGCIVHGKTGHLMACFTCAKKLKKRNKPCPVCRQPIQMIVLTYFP
UniProt P10275: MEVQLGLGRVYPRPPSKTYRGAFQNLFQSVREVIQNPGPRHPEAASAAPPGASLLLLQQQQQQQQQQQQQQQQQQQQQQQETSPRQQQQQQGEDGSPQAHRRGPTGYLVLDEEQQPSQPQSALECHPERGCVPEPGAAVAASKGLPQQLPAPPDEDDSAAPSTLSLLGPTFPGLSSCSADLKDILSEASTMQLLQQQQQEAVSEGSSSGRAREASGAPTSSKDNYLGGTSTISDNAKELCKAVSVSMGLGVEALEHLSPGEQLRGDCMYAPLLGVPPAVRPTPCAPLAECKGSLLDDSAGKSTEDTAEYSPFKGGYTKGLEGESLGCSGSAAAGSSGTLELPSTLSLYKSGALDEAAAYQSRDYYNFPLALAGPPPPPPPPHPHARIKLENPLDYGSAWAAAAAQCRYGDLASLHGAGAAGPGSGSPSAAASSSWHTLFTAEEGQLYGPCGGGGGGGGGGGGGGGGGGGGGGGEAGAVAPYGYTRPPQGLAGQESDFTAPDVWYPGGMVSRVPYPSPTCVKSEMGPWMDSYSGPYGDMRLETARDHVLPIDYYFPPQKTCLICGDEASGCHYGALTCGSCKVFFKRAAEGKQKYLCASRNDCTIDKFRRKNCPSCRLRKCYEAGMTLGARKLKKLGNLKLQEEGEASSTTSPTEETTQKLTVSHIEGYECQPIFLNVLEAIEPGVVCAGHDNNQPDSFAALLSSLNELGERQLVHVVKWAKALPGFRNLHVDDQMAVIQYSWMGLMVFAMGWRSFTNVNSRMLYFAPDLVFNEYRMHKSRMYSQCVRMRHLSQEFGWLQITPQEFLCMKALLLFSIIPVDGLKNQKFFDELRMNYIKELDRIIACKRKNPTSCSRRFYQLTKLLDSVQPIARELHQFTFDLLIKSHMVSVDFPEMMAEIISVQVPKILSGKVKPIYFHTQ

No constants are given. Whether binding was seen depends on the method and setting. Binding seen in cells or lysates may run through a third protein. Some entries that bind do so weakly or less than the wild type.

This experiment deals with Flag‐MDM2 expressed in 293T cells (UniProt Q00987). The experiment can be described thus: co-IP; 293T cells transfected with HA‐AR and Flag‐MDM2, anti‐Flag immunoprecipitate, without drug (natural conditions).

“HA‐AR (androgen receptor) expressed in 293T cells (from UniProt P10275 1-920)”: the binding entry is reported as “binds weakly”.
